Laboratory results: article PMC4379085
These are yes or no findings as the source states them, for the method shown. In cells and extracts the contact can be indirect. Some results given as binding are weak or reduced against the parent protein; the word gives no strength. Where a sequence is shown, tags or fusion partners need not be part of it.

Sequences of proteins named here, by UniProt entry; tags and fusion partners are left off.
UniProt Q8NDC4: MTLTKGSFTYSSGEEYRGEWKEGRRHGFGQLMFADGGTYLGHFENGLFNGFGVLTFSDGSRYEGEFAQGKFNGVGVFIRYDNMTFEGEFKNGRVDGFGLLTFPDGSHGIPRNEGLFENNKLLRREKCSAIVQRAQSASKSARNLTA

Target: GST-MORN4 recombinant protein (human MORN4) (human) (UniProt Q8NDC4)
Assay: pull-down; GST-MORN4 or GST alone bound to glutathione-agarose beads 1 hr at 4°C, then incubated 2 hr with GFP-tagged MYO3A tail in COS7 lysate in CLB (5mM DTT, 150mM NaCl, 1% Triton X-100, 50mM Tris pH 7.4, 2mM EDTA); beads washed 3 times; western blot; only the target purified

B1: GFP-MYO3A Tail FL (human myosin IIIA tail, lacks the kinase and motor domains) (domain or fragment, UniProt Q8NEV4-1 1133-1616)
chain: RESFVKKQAENAISANERFISAPNNKGSVSVVKTSTFKPEEETTNAVESNNRVYQTPKKMNNVYEEEVKQEFYLVGPEVSPKQKSVKDLEENSNLRKVEKEEAMIQSYYQRYTEERNCEESKAAYLERKAISERPSYPVPWLAENETSFKKTLEPTLSQRSIYQNANSMEKEKKTSVVTQRAPICSQEEGRGRLRHETVKERQVEPVTQAQEEEDKAAVFIQSKYRGYKRRQQLRKDKMSSFKHQRIVTTPTEVARNTHNLYSYPTKHEEINNIKKKDNKDSKATSEREACGLAIFSKQISKLSEEYFILQKKLNEMILSQQLKSLYLGVSHHKPINRRVSSQQCLSGVCKGEEPKILRPPRRPRKPKTLNNPEDSTYYYLLHKSIQEEKRRPRKDSQGKLLDLEDFYYKEFLPSRSGPKEHSPSLRERRPQQELQNQCIKANERCWAAESPEKEEEREPAANPYDFRRLLRKTSQRRRLVQQS
Q: For B1, which binding is on record?
A: binds
